From PMC12269058
No constants are given. Whether binding was seen depends on the method and setting. Binding seen in cells or lysates may run through a third protein. Some results given as binding are weak or reduced against the parent protein; the word gives no strength.

Molecular target: T1, phosphoglycerate kinase 1 (human (endogenous in HK-2)) (UniProt P00558)
T1 sequence: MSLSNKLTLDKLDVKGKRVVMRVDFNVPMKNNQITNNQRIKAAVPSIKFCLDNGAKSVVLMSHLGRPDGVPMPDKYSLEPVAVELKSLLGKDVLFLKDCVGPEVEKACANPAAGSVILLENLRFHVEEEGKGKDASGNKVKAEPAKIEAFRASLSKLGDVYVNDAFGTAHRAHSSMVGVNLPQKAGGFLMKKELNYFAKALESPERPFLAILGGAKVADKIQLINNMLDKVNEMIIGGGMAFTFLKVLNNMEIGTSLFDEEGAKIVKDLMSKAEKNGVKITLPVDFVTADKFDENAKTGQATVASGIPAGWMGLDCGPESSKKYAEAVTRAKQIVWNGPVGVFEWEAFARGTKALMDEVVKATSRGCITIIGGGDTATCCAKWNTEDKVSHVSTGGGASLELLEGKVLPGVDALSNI
Assay: co-IP; total protein of HK-2 cells; primary antibody or IgG overnight at 4°C, Protein A/G agarose beads 2 h at 4°C; western blotting; forward (ACSF2) and reverse (PGK1) precipitation

B1: Acyl-CoA Synthetase family member 2 (protein, UniProt Q96CM8 42-615)
chain: LSSREVDRMVSTPIGGLSYVQGCTKKHLNSKTVGQCLETTAQRVPEREALVVLHEDVRLTFAQLKEEVDKAASGLLSIGLCKGDRLGMWGPNSYAWVLMQLATAQAGIILVSVNPAYQAMELEYVLKKVGCKALVFPKQFKTQQYYNVLKQICPEVENAQPGALKSQRLPDLTTVISVDAPLPGTLLLDEVVAAGSTRQHLDQLQYNQQFLSCHDPINIQFTSGTTGSPKGATLSHYNIVNNSNILGERLKLHEKTPEQLRMILPNPLYHCLGSVAGTMMCLMYGATLILASPIFNGKKALEAISRERGTFLYGTPTMFVDILNQPDFSSYDISTMCGGVIAGSPAPPELIRAIINKINMKDLVVAYGTTENSPVTFAHFPEDTVEQKAESVGRIMPHTEARIMNMEAGTLAKLNTPGELCIRGYCVMLGYWGEPQKTEEAVDQDKWYWTGDVATMNEQGFCKIVGRSKDMIIRGGENIYPAELEDFFHTHPKVQEVQVVGVKDDRMGEEICACIRLKDGEETTVEEIKAFCKGKISHFKIPKYIVFVTNYPLTISGKIQKFKLREQMERHLNL
- binding: binds
